Assay results as given in US20240173310A1, “PHARMACEUTICAL DOSAGE FORMS COMPRISING (4S)-24-CHLORO-4-ETHYL-73-FLUORO-35-METHOXY-32,5-DIOXO-14-(TRIFLUOROMETHYL)-32H-6-AZA-3(4,1)-PYRIDINA-1(1)-[1,2,3]TRIAZOLA-2(1,2),7(1)-DIBENZENAHEPTAPHANE-74-CARBOXAMIDE” (Bayer Aktiengesellschaft, priority 2021, published 2024).
In brackets after ≈: the same amount, converted by molar mass.

Key:
physchem = conditions: organic solvent or mixture, thermodynamic from solid
[1] = Exposure of active ingredient (I) in the rat after single oral dose; conditions: male rats, oral 3.00 mg/kg; relative to PEG solution of example 1-2 (100% reference)

solubility (physchem; Solubility in a mixture of ethanol/acetone (1:1)): ~180 mg/mL (≈ 304 mM)
solubility (physchem; Solubility in acetone): ~80 mg/mL (≈ 135 mM)
solubility (physchem; Solubility in ethanol): ~35 mg/mL (≈ 59 mM)
F rel [%] animal [1]: 11%
Compound: CC[C@@H](C(=O)Nc1ccc(C(N)=O)c(F)c1)n1cc(OC)c(-c2cc(Cl)ccc2-n2cc(C(F)(F)F)nn2)cc1=O [4-({(2S)-2-[4-{5-chloro-2-[4-(trifluoromethyl)-1H-1,2,3-triazol-1-yl]phenyl}-5-methoxy-2-oxopyridin-1(2H)-yl]butanoyl}amino)-2-fluorobenzamide]
